Data taken from the supplement of paper PMC4604168 (melanoma cell lines).
The list shows a part of the results. Many values rest on one well or one pass, so single values are uncertain.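 Imaging used 1,536-well plates; nuclei positive for cleaved PARP by antibody were divided by total DNA-stained nuclei to yield the apoptosis fraction. Doses for screening kept most cells viable, and cell lines differ markedly in resting and induced cleaved-PARP levels.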

Assays:
Assay in all cases: cleaved PARP positive nuclei fraction relative to DMSO control; melanoma cells; higher = more apoptosis
Details in all cases: library dose: low library concentration; 72 h
[1] = system: CBRC034 (line from a melanoma biopsy)
[2] = system: COLO792
[3] = system: COLO800
[4] = system: COLO829
[5] = system: G361
[6] = system: IPC-298
[7] = system: IST-MEL1
[8] = system: LB2518-MEL
[9] = system: LOXIMVI
[10] = system: MZ2-MEL
[11] = system: MeWo
[12] = system: RPMI7951
[13] = system: RVH-421
[14] = system: SkMel28
[15] = system: SkMel30
[16] = system: SkMel5
[17] = system: UACC257
[18] = system: UACC62

SMILES	cleaved PARP positive nuclei fraction [1]	cleaved PARP positive nuclei fraction [2]	cleaved PARP positive nuclei fraction [3]	cleaved PARP positive nuclei fraction [4]	cleaved PARP positive nuclei fraction [5]	cleaved PARP positive nuclei fraction [6]	cleaved PARP positive nuclei fraction [7]	cleaved PARP positive nuclei fraction [8]	cleaved PARP positive nuclei fraction [9]	cleaved PARP positive nuclei fraction [10]	cleaved PARP positive nuclei fraction [11]	cleaved PARP positive nuclei fraction [12]	cleaved PARP positive nuclei fraction [13]	cleaved PARP positive nuclei fraction [14]	cleaved PARP positive nuclei fraction [15]	cleaved PARP positive nuclei fraction [16]	cleaved PARP positive nuclei fraction [17]	cleaved PARP positive nuclei fraction [18]
N#Cc1c(O)c2c(-c3ccc(-c4ccccc4O)cc3)csc2[nH]c1=O + c1cc(-c2cnn3cc(-c4ccc(OCCN5CCCCC5)cc4)cnc23)ccn1 [Dorsomorphin] (first compound 2 µM, partner dose 0.4 µM)	46.8%	74%	173%	201%	120%	106%	133%	135%	31.1%	69.9%	106%	87.6%	35.8%	115%	24.8%	58.8%	228%	166%
O=C(O)c1ccc(-c2c[nH]c3ncc(-c4ccccc4)cc23)cc1C1CCCC1 + CCCCCCCCCCCC1=C(O)C(=O)C=C(O)C1=O [Embelin] (first compound 0.16 µM, partner dose 1.2 µM)	82.9%	98.9%	295%	57%	56.3%	78.7%	70.6%	88.8%	15%	376%	33.3%	41.8%	352%	75.3%	11.6%	71.9%	85.8%	178%
N#Cc1c(O)c2c(-c3ccc(-c4ccccc4O)cc3)csc2[nH]c1=O + CCCCCCCCCCCC1=C(O)C(=O)C=C(O)C1=O [Embelin] (first compound 2 µM, partner dose 1.2 µM)	103%	72.5%	73%	84%	87.8%	50.5%	38.1%	71.3%	949%	182%	32.4%	70.8%	85.9%	99.2%	16.2%	38.2%	41%	98.2%
Cc1cc([N+](=O)[O-])ccc1NS(=O)(=O)c1cc(Cl)ccc1Cl + Cn1cc(/C=C2\C(=O)Nc3cccnc32)c2ccccc21 [GW441756] (first compound 1 µM, partner dose 0.4 µM)	285%	132%	81%	91.4%	80.7%	103%	172%	93.9%	34.9%	137%	27.2%	67%	87.4%	79.4%	23.5%	78.9%	145%	171%
COc1ccc2c(c1)CCC1C2CCC2(C)C(NCCCCCCN3C(=O)C=CC3=O)CCC12 (stereo unspecified) + O=c1cc(-c2cccc3c2Sc2ccccc2S3)oc(N2CCOCC2)c1 [KU55933] (first compound 0.4 µM, partner dose 1 µM)	87%	143%	111%	80.6%	106%	169%	114%	66.1%	63%	147%	57.9%	236%	37.6%	152%	122%	57.9%	70.9%	43%
NCC(=O)Nc1ccc(-n2nc(C(F)(F)F)cc2-c2ccc3c(ccc4ccccc43)c2)cc1 + O=C(O)C(=O)Nc1sc2c(c1C(=O)O)CCNC2 [TCS401] (first compound 1 µM, partner dose 1.66667 µM)	79.3%	129%	198%	81.3%	60.2%	101%	64.6%	165%	78.2%	134%	194%	149%	60.7%	199%	451%	114%	123%	37.1%
COc1ccc2c(c1)CCC1C2CCC2(C)C(NCCCCCCN3C(=O)C=CC3=O)CCC12 (stereo unspecified) + c1cc(-c2cnn3cc(-c4ccc(OCCN5CCCCC5)cc4)cnc23)ccn1 [Dorsomorphin] (first compound 0.4 µM, partner dose 0.4 µM)	324%	140%	223%	138%	124%	88.2%	133%	38%	85.7%	160%	27.3%	110%	82.7%	251%	84.4%	128%	213%	130%
Oc1nc(-c2ccc(C(F)(F)F)cc2)nc2c1CSCC2 + CC(C)CCN1c2nc(Nc3cc(F)c(O)c(F)c3)ncc2N(C)C(=O)C1C [BID1870] (first compound 2 µM, partner dose 0.2 µM)	51.5%	98.1%	155%	73.5%	87.1%	47.7%	174%	349%	35.9%	90.1%	162%	37.4%	82%	197%	36.4%	63.1%	474%	199%
O=S(=O)(c1ccccc1)N(CC(F)(F)F)c1ccc(C(O)(C(F)(F)F)C(F)(F)F)cc1 + COc1cc(N2CCC(N3CCN(C)CC3)CC2)ccc1Nc1ncc(Cl)c(Nc2ccccc2S(=O)(=O)C(C)C)n1 [NVP-TAE684] (first compound 1.4 µM, partner dose 0.08 µM)	92.3%	87.5%	75.9%	114%	110%	43.8%	128%	184%	68.2%	86.6%	55.9%	77.3%	65.3%	48.8%	157%	239%	79%	45.3%
CCN(CC)CCCCNc1ncc2cc(-c3cc(OC)cc(OC)c3)c(NC(=O)NC(C)(C)C)nc2n1 + O=C(O)C(=O)Nc1sc2c(c1C(=O)O)CCNC2 [TCS401] (first compound 0.1 µM, partner dose 1.66667 µM)	27.2%	124%	72.8%	70.5%	79%	77.3%	52.9%	159%	99.1%	36.9%	47.7%	34.2%	73.8%	105%	40.9%	190%	74.7%	49%
Oc1nc(-c2ccc(C(F)(F)F)cc2)nc2c1CSCC2 + O=c1cc(-c2cccc3c2Sc2ccccc2S3)oc(N2CCOCC2)c1 [KU55933] (first compound 2 µM, partner dose 1 µM)	163%	114%	135%	57.2%	92.3%	115%	172%	69.2%	25.8%	83.9%	37.3%	92.5%	95.2%	208%	80.9%	42.5%	245%	79.3%
COc1ccc2c(c1)CCC1C2CCC2(C)C(NCCCCCCN3C(=O)C=CC3=O)CCC12 (stereo unspecified) + CCCCCCCCCCCC1=C(O)C(=O)C=C(O)C1=O [Embelin] (first compound 0.4 µM, partner dose 1.2 µM)	120%	75.2%	65.6%	63%	312%	53.3%	284%	82.6%	65.7%	118%	35.4%	91.2%	102%	195%	14.7%	169%	77.7%	74.8%
O=C(Nc1ccccc1)c1cc([N+](=O)[O-])ccc1Cl + CCN(CC)CCCCNc1ncc2cc(-c3cc(OC)cc(OC)c3)c(NC(=O)NC(C)(C)C)nc2n1 [PD173074] (first compound 2 µM, partner dose 0.1 µM)	115%	96.8%	119%	139%	175%	171%	56.7%	87%	155%	120%	50.6%	121%	41.8%	100%	111%	62.2%	30%	81.4%
COc1cc2c(Oc3ccc4[nH]c(C)cc4c3F)ncnc2cc1OCCCN1CCCC1 [cediranib] + CCc1ccc(CCOc2ccc(CC3SC(=O)NC3=O)cc2)nc1 [pioglitazone] (first compound 0.4 µM, partner dose 2 µM)	166%	111%	119%	62.8%	93.2%	64.3%	84.6%	169%	29.8%	34.8%	97%	79.5%	71.1%	65.1%	42.9%	152%	41.6%	319%
COc1ccc(COc2ccc(Cc3cnc(N)nc3N)cc2OC)cc1 + O=S(=O)(c1ccccc1)N(CC(F)(F)F)c1ccc(C(O)(C(F)(F)F)C(F)(F)F)cc1 [T0901317] (first compound 1 µM, partner dose 1.4 µM)	84.8%	70.1%	90.7%	111%	144%	29.3%	124%	86.5%	68.8%	103%	56.5%	74.4%	87.1%	144%	58.7%	61.3%	82.4%	106%
CN(C)S(=O)(=O)c1ccc2c(c1)/C(=C/c1cc3c([nH]1)CCCC3)C(=O)N2 + Oc1cc(-c2nc(-c3ccccc3)[nH]c2-c2ccncc2)ccc1Cl [L779450] (first compound 0.4 µM, partner dose 0.2 µM)	90.1%	166%	87.5%	143%	80.7%	93.4%	48%	49.6%	12.1%	79%	88.4%	43.8%	85.8%	276%	62.6%	121%	100%	54.8%
O=C(Nc1ccccc1)c1cc([N+](=O)[O-])ccc1Cl + COc1ccc2c(c1)CCC1C2CCC2(C)C(NCCCCCCN3C(=O)C=CC3=O)CCC12 [U73122] (first compound 2 µM, partner dose 0.4 µM)	144%	143%	27.8%	104%	42.8%	82.2%	28.6%	86.4%	219%	310%	55.2%	87.4%	23.2%	105%	25.3%	100%	66.5%	176%

4 consecutive entries already listed, for reference:
SMILES	cleaved PARP positive nuclei fraction [1]	cleaved PARP positive nuclei fraction [2]	cleaved PARP positive nuclei fraction [3]	cleaved PARP positive nuclei fraction [4]	cleaved PARP positive nuclei fraction [5]	cleaved PARP positive nuclei fraction [6]	cleaved PARP positive nuclei fraction [7]	cleaved PARP positive nuclei fraction [8]	cleaved PARP positive nuclei fraction [9]	cleaved PARP positive nuclei fraction [10]	cleaved PARP positive nuclei fraction [11]	cleaved PARP positive nuclei fraction [12]	cleaved PARP positive nuclei fraction [13]	cleaved PARP positive nuclei fraction [14]	cleaved PARP positive nuclei fraction [15]	cleaved PARP positive nuclei fraction [16]	cleaved PARP positive nuclei fraction [17]	cleaved PARP positive nuclei fraction [18]
O=C(O)c1ccc(-c2c[nH]c3ncc(-c4ccccc4)cc23)cc1C1CCCC1 + CCCCCCCCCCCC1=C(O)C(=O)C=C(O)C1=O [Embelin] (first compound 0.16 µM, partner dose 1.2 µM)	82.9%	98.9%	295%	57%	56.3%	78.7%	70.6%	88.8%	15%	376%	33.3%	41.8%	352%	75.3%	11.6%	71.9%	85.8%	178%
N#Cc1c(O)c2c(-c3ccc(-c4ccccc4O)cc3)csc2[nH]c1=O + CCCCCCCCCCCC1=C(O)C(=O)C=C(O)C1=O [Embelin] (first compound 2 µM, partner dose 1.2 µM)	103%	72.5%	73%	84%	87.8%	50.5%	38.1%	71.3%	949%	182%	32.4%	70.8%	85.9%	99.2%	16.2%	38.2%	41%	98.2%
Cc1cc([N+](=O)[O-])ccc1NS(=O)(=O)c1cc(Cl)ccc1Cl + Cn1cc(/C=C2\C(=O)Nc3cccnc32)c2ccccc21 [GW441756] (first compound 1 µM, partner dose 0.4 µM)	285%	132%	81%	91.4%	80.7%	103%	172%	93.9%	34.9%	137%	27.2%	67%	87.4%	79.4%	23.5%	78.9%	145%	171%
COc1ccc2c(c1)CCC1C2CCC2(C)C(NCCCCCCN3C(=O)C=CC3=O)CCC12 (stereo unspecified) + O=c1cc(-c2cccc3c2Sc2ccccc2S3)oc(N2CCOCC2)c1 [KU55933] (first compound 0.4 µM, partner dose 1 µM)	87%	143%	111%	80.6%	106%	169%	114%	66.1%	63%	147%	57.9%	236%	37.6%	152%	122%	57.9%	70.9%	43%
